Measurements: patent publication US20190358348A1, “CHARACTERIZATION OF BIOLOGICAL TISSUES AT A CELLULAR LEVEL USING RED AND FAR-RED FLUORESCENT DYES” (IGR-Institut Gustave Roussy, priority 2012, published 2019)

Assays:
[1] = system: head and neck tissue (non-tumoral mucosa and HNSCC); test: Fluorescence imaging (CLSM, pCLE) of ex vivo human head and neck surgical specimens after topical dye staining; conditions: for cellular distribution of dye fluorescence: CLSM and pCLE; for cellular distribution of dye fluorescence / time for tissue labeling: topical staining; for imaging depth below the surface limited by dye diffusion: topical delivery mode
[2] = system: popliteal and/or inguinal lymph node; conditions: ex vivo CLSM and pCLE, healthy lymph nodes

## CC1(C)C(/C=C/C=C/C=C/C=C2\N(CCCCS(=O)(=O)O)c3ccc4ccccc4c3C2(C)C)=[N+](CCCCS(=O)(=O)[O-])c2ccc3ccccc3c21 [ICG, Indocyanine green]
[1]; 0.25 mg/ml ICG topical 10 s
  dye leakage over the imaging procedure: no dye leakage was observed
[1]
  cellular distribution of dye fluorescence: distributed throughout the cell cytoplasm

## CN(C)c1ccc2nc3ccc(=[N+](C)C)cc-3sc2c1 [MB, Methylene blue]
[2]
  staining of lymphocytes: uniformly stained
[1]
  cellular distribution of dye fluorescence: diffuse staining in the cell cytoplasm and a higher fluorescence intensity in the nuclei
  imaging depth below the surface limited by dye diffusion: approximately 60 μm
[1]; ex vivo specimens imaged immediately after staining
  period of decrease in fluorescence intensity / contrast imaging due to dye leakage from the tissue: 2 h

## CCN(CC)c1ccc(C(=C2C=CC(=[N+](CC)CC)C=C2)c2cc(O)c(S(=O)(=O)[O-])cc2S(=O)(=O)[O-])cc1.[Na+] [PB, sodium patent blue V]
[2]
  staining of lymphocytes: uniformly stained
[1]
  cellular distribution of dye fluorescence: distribution throughout the cell cytoplasm
  time for tissue labeling: less than one minute

## Cc1cc2nc3ccc(N(C)C)cc3[s+]c2cc1N.[Cl-] [TB, Toluidine Blue]
[2]
  staining of lymphocytes: uniformly stained
[1]
  cellular distribution of dye fluorescence: Bright fluorescence in the nuclei and diffuse staining within the cytoplasm
  imaging depth below the surface limited by dye diffusion: approximately 60 μm
  time for tissue labeling: less than one minute
[1]; TB 1% topical, focal plane of gastroflex UHD
  time after dye loading to optimal diffusion 60 μm below the surface: 15 min
